Assay [1] is described as follows: qHTS Assay for Modulators of Human Peripheral Myelin Protein 22 (PMP22) Expression/Activity (AID 1967). The conditions noted are these: Cell-based PMP22 reporter, dual-color luciferase ratio. In outline:
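Mouse MSC80 Schwann cells carrying Pmp22 promoter–green click beetle luciferase plus EF-alpha–red luciferase control, dosed 24 h at 37 °C. Dual-filter luminescence, overlap-corrected; %Activity from green/red ratio normalised to untreated cells, concentration-response curves fitted.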

Assay [2] can be described thus: qHTS assay for small molecule antagonists of peroxisome proliferator-activated receptor gamma signaling (AID 588537). The following applies: HEK293 PPARg-UAS-bla, beta-lactamase ratio, antagonist mode; measured here: W460 blue channel. The essentials: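 Cell-based beta-lactamase assay; GW9662 served as the antagonist control. Stimulation used rosiglitazone, final 50 nM, 16 h, 37 C.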

Assay [3] can be described thus: A High-Content qHTS Against Drug Library for the Identification of Small Molecules that Inhibit DYT1 Early Onset Primary Dystonia-Associated Cell Pathology (AID 1645839). The conditions noted are these: HEK293 Flp-In EGFP-delE TorsinA, punctate imaging, 48 h; measured here: cell count cytotoxicity. The essentials:
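High-content imaging quantified EGFP-TorsinA mislocalization in HEK293-derived cells inducibly expressing DYT1 mutant torsinA, after 48 h exposure to compound given together with tetracycline induction. Cell count served as a toxicity channel alongside %pathology.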

Assay [4] in a line: qHTS for identification of novel therapeutic agents for treatment of microphthalmiaassociated transcription factor (MiT) renal cell carcinoma (RCC) (AID 1963991). The following applies: CellTiter-Glo, 48 h; for z-score: stronger effect = lower value. In outline: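 Three TFE3-fusion RCC cell lines (UOK109, UOK124, UOK145), 500 cells/well, were exposed to the 1912-compound MIPE 4.0 library for 48 hours at 37 C. Viability was read by CellTiter-Glo luminescence, normalised to DMSO (100%) and empty wells (0%), with 11-concentration curve fits.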

Assay [5] can be described thus: qHTS Validation Assay to Find Inhibitors of Chronic Active B-Cell Receptor Signaling (AID 485345). The conditions noted are these: ABC-DLBCL cells, chronic BCR signaling reporter. The essentials: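 Read-out: ratio of filter-corrected green (IkappaBalpha fusion) to red (native) luciferase signal in doxycycline-induced TMD8 cells after 4 h at 37C. Titration spanned 46 uM–3 nM; Data were normalised to basal cells and 10 uM MG-132 wells.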

Assay [6] is described as follows: qHTS assay for small molecule antagonists of peroxisome proliferator-activated receptor delta signaling (AID 588535).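 Note: cells co-treated with a PPAR-delta agonist as stimulator during compound exposure.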 The following applies: HEK293T PPARd-UAS-bla, beta-lactamase FRET ratio, 18 h; 460 nm channel. In outline: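 Antagonist-mode qHTS using GeneBLAzer PPAR-delta-UAS-bla HEK293T cells; compound exposure 18 hrs at 37 C over a titration. Ratiometric CCF4 fluorescence at 460/530 nm; concentration-response points fitted to the Hill equation.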

The nature of assay [7]: qHTS assay for small molecule agonists of retinoid X receptor alpha signaling (AID 588544). The conditions noted are these: HEK293T RXRa-UAS-bla, beta-lactamase reporter, 18 h; 530 nm emission.
The nature of assay [8]: qHTS assay for small molecule antagonists of androgen receptor signaling (AID 588516). The following applies: AR-UAS-bla HEK293, beta-lactamase ratio, antagonist mode, 16 h; measured here: W460 blue channel fit. In outline: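 Cells were plated and incubated 5 h, compounds added in titration, then R1881 (10 nM final) as agonist. After 16 h at 37 C, CCF4 substrate was loaded for 2 h at room temperature and fluorescence measured.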

The mark [9] stands for this setting: measured here: green reporter channel AC50, mouse Pmp22 promoter in mouse Schwann cells.
Setting [10] is: measured here: red reporter channel AC50, EF-alpha promoter control reporter in MSC80 mouse Schwann cells.
[11] abbreviates: TFE3-RCC UOK109 viability, measured here: UOK109 Z-AUC.
Where [12] appears, read: TFE3-RCC viability, measured here: UOK124 Z-AUC.
[13] abbreviates: TFE3-RCC viability, measured here: UOK124 cell viability.
Where [14] appears, read: TFE3-RCC viability, measured here: UOK145 Z-AUC.
Setting [15] is: TFE3-RCC viability, measured here: UOK145 cell viability.

Values joined by “and” are separate entries in the source; they are usually repeats but may differ in a detail not shown here. Equal entries are not always repeated. The list shows a part of the results. These are further read-outs of the screen, such as a control signal, another cell line or another target. No call is given for them. Most of these compounds were active or inconclusive in the main read-out, so they are no random draw. For some assays here: The note in brackets gives the kind of curve behind each potency; many fits are weak.

As for `CC(C)NCC(O)c1ccc(O)c(O)c1` (stereo unspecified), the AC50 in assay [1] (setting [9]) is 84.9 µM [falling, single point] and 95.3 µM [falling, single point]; in assay [1] (setting [10]), 75.7 µM [falling, partial curve] and 84.9 µM [falling, single point]; in assay [2], 50.1 µM [rising, single point]; in assay [3], 35.5 µM [falling, single point]; in assay [4] (setting [13]), 3.72 µM [falling, partial curve, poor fit]; in assay [4] (setting [15]), 1.32 µM [falling, full curve]. Besides, the z-score in assay [4] (setting [11]) was -0.664; in assay [4] (setting [12]), 0.496; in assay [4] (setting [14]), -1.6.

For the compound `CN(C)CCC=C1c2ccccc2CCc2ccccc21`, the concentration at half-maximal activity (AC50) in assay [5] (measured here: CBG/CBR ratio read-out) was 16.4 µM [falling, single point]; in assay [5] (measured here: CBR control luciferase (viability counter)), 16.4 µM [falling, partial curve]; in assay [2] it was 39.8 µM [falling, partial curve, poor fit]; in assay [3], 35.5 µM [falling, partial curve, poor fit]. In addition, the results for the max response in assay [6] and in assay [7] were 85.4% and -11.8%, respectively.

As for `CCCCOCCOCCOCc1cc2c(cc1CCC)OCO2`, in assay [6], the max response turned out to be 136%. The half-maximal activity concentration (AC50) is 2.82 µM [falling, full curve, poor fit] in assay [2] and 63.1 µM [rising, single point] in assay [3].

In the case of `COc1cc(C(C)=O)ccc1OCCCN1CCC(c2noc3cc(F)ccc23)CC1`, the concentration at half-maximal activity (AC50) was 39.8 µM [falling, partial curve, poor fit] in assay [3] and 33.2 µM [falling, single point] in assay [4] (setting [13]). The z-score in assay [4] (setting [11]) is -0.141; in assay [4] (setting [12]), 0.0417; in assay [4] (setting [14]), 0.343.

On to `CC(CN1c2ccccc2Sc2ccccc21)N(C)C` (stereo unspecified), for which the AC50 in assay [1] (setting [9]) was 95.3 µM [falling, single point]; in assay [1] (setting [10]), 84.9 µM [falling, partial curve]; in assay [2], 44.7 µM [falling, partial curve, poor fit]; in assay [3], 17.8 µM [falling, partial curve, poor fit].

As for `CC(C)OC(=O)C(C(=O)OC(C)C)=C1SC=CS1`, the AC50 in assay [3] was 35.5 µM [rising, single point]; in assay [4] (setting [13]), 20.9 µM [falling, partial curve, poor fit]. In addition, the z-score in assay [4] (setting [11]) came out at 0.86; in assay [4] (setting [12]), 0.366; in assay [4] (setting [14]) it was 0.481.

For the compound `CN(C)[C@@H](CCOc1cccc2ccccc12)c1ccccc1`, the AC50 in assay [3] was 14.1 µM [falling, partial curve, poor fit]; in assay [4] (setting [13]), 20.9 µM [falling, partial curve]. In addition, the z-score in assay [4] (setting [11]) came to 0.205; in assay [4] (setting [12]), 0.494; in assay [4] (setting [14]), 0.24.

With `CCCCC(CC)COC(=O)c1ccccc1C(=O)O` (stereo unspecified), the max response in assay [6] was determined as 52.9%. The half-maximal activity concentration (AC50) in assay [3] is 31.6 µM [falling, single point].

`CCCCCCCCOc1ccccc1C(=O)Nc1ccc(C(=O)OCC[N+](C)(CC)CC)cc1`: the concentration at half-maximal activity (AC50) in assay [3] was 35.5 µM [falling, single point]; in assay [4] (setting [13]), 20.9 µM [falling, single point]. The z-score in assay [4] (setting [11]) was found to be 0.393; in assay [4] (setting [12]), 0.0343; in assay [4] (setting [14]) it was 0.18.

As for `O=C(CCCN1CCN(c2ccc(F)cc2)CC1)NC1c2ccccc2CSc2ccccc21` (stereo unspecified), the AC50 in assay [3] is 11.2 µM [falling, partial curve, poor fit]; in assay [4] (setting [13]), 9.35 µM [falling, partial curve]; in assay [4] (setting [15]) it was 13.2 µM [falling, partial curve, poor fit]. Moreover, the results for the z-score in assay [4] (setting [11]), in assay [4] (setting [12]) and in assay [4] (setting [14]) were 0.582, 0.489 and 0.428, respectively.

Turning to `O[C@@H](CNC[C@H](O)[C@H]1CCc2cc(F)ccc2O1)[C@@H]1CCc2cc(F)ccc2O1`, the AC50 was 3.55 µM [falling, full curve, poor fit] in assay [3]; 20.9 µM [falling, partial curve] in assay [4] (setting [13]); 37.2 µM [falling, single point] in assay [4] (setting [15]). For the same compound, the z-score in assay [4] (setting [11]) was -0.0304; in assay [4] (setting [12]) it was -0.165; in assay [4] (setting [14]), 1.1.

Take `CN1C[C@H]2c3ccccc3Oc3ccc(Cl)cc3[C@@H]2C1`: the AC50 in assay [3] was 1.12 µM [falling, full curve, poor fit]. For the same compound, the z-score is 0.217 in assay [4] (setting [11]), 0.0174 in assay [4] (setting [12]) and -0.0732 in assay [4] (setting [14]).

On to `O=C(Nc1ccc(Cl)cc1)Nc1ccc(Cl)c(Cl)c1`, for which the AC50 in assay [8] is 25.1 µM [falling, full curve, poor fit]; in assay [3], 14.1 µM [falling, single point]. Further, the max response in assay [6] was -12.3%.

On to `CCCCOC(=O)c1ccc(O)cc1`, for which the max response in assay [6] was determined as 34.2%. Besides, the AC50 in assay [2] was 63.1 µM [falling, partial curve, poor fit]; in assay [3], 1.41 µM [falling, full curve].

For `CN1CCN(C2=Nc3cc(Cl)ccc3Nc3ccccc32)CC1`, the AC50 in assay [3] is 7.94 µM [falling, partial curve]; in assay [4] (setting [13]), 18.7 µM [falling, partial curve]. The z-score in assay [4] (setting [11]) is 0.318; in assay [4] (setting [12]), 0.473; in assay [4] (setting [14]), 0.557.
